{"source": "PubChem BioAssay (NCATS)", "note": "This list was built around the results that the source calls inconclusive (neither active nor inactive); the mix of calls is not that of the screen. Potencies of inconclusive entries are doubtful fits and often do not repeat. Calls of active or inactive are those of the source. The call rests on the fitted dose curve; in most records, active means well fitted cell-killing curve with a large enough effect; inconclusive means small, poorly fitted or top-dose-only effect, or effect the other way; inactive means no such curve, though single readings can be large or run the other way. Potency means the concentration at half of the fitted maximal effect."}
{"test": "Quantitative High-Throughput drug screen in 47 multiple myeloma cell lines against the NCATS MIPE library collection: RPMI8226_ATCC cell viability assay (AID 1919871); further: nearly all actives have a fitted effect of over 30% in size", "details": "RPMI8226 myeloma viability, CellTiter-Glo ATP luminescence, 48 h; series mostly up to 45.8 µM; viability (% of control): at the top concentration", "excerpt": "PI: Beverly A. Mock Ph.D.\nLaboratory of Cancer Biology and Genetics,\nCenter for Cancer Research, National Cancer Institute,\nNational Institute of Health, Bethesda, Maryland\nDrug resistance and disease progression are common in multiple myeloma (MM) patients, underscoring the need for new therapeutic combinations. […] We hypothesized that effective combinations would reduce MYC expression and enhance p16 activity. […] These preclinical data identify potentially useful drug combinations for evaluation in drug-resistant MM and reveal potential mechanisms of combined drug sensitivity.\nDescribed herein is the primary MIPE qHTS used to cherrypick compounds. Validated compounds were then further tested for potential synergistic activiy.\n[1] Peat TJ, Gaikwad SM, Dubois W, Gyabaah-Kessie N, Zhang S, Gorjifard S, Phyo Z, Andres M, Hughitt VK, Simpson RM, Miller MA, Girvin AT, Taylor A, Williams D, D'Antonio N, Zhang Y, Rajagopalan A, Flietner E, Wilson K, Zhang X, Shinn P, Klumpp-Thomas C, McKnight C, Itkin Z, Chen L, Kazandijian D, Zhang J, Michalowski AM, Simmons JK, Keats J, Thomas CJ, Mock BA. Drug combinations identified by high-throughput screening promote cell cycle transition and upregulate Smad pathways in myeloma. Cancer Lett. 2023 Aug 1;568:216284. doi: 10.1016/j.canlet.2023.216284. Epub 2023 Jun 24. PMID: 37356470; PMCID: PMC10408729.\nSEQUENCE No. (e.g., 1, 2, 3, etc.); […] (e.g., Cells, Incubation, Reagent, etc.); VALUE and DESCRIPTION.\n1; Cells; 5 uL; white, solid bottom 1536-well Greiner assay plate.\n2; Compounds; 23 nL; Kalypsis pin tool (Wako USA) equipped with a 1536-well pin head to transfer to the assay plates.\n3; Incubation; 48 hours; 37C incubation.\n4; Reagent;5uL; CellTiter Glo (Promega).\n5; Detector; 425V; Luminescence; Viewlux PerkinElmer.\nNOTES (numbers refer to Sequence numbers above)\n1. The cell-based screening methods employed in this study were like those previously published. Briefly, the corresponding myeloma cell lines were screened in 1,536-well plates with 500 cells, 5-uL per well for inhibition of cell viability (assessed by measuring ATP levels with CellTiterGlo).\n2. NCATS MIPE 4.0 library of approved and investigational drugs were added using the Kalypsis pin tool. Wells treated with DMSO only for 100% viability and media only for 0% viability were used as controls.\n3. The assay plates were covered and incubated for 48 hours in a 37C, 5% CO2 incubator with controlled humidity.\n4. After 48 hours, CellTilter-GloTM luminescent substrate mix (Promega) reagent was added to the assay plate and plates we incubated for 5 min at room temperature.\n5. Signal was measured as median relative luminescence units on a ViewLux (PerkinElmer) multiplate reader.\n[1] Heske CM, Davis MI, Baumgart JT, Wilson K, Gormally MV, Chen L, Zhang X, Ceribelli M, Duveau DY, Guha R, Ferrer M, Arnaldez FI, Ji J, Tran HL, Zhang Y, Mendoza A, Helman LJ, Thomas CJ. Matrix Screen Identifies Synergistic Combination of PARP Inhibitors and Nicotinamide Phosphoribosyltransferase (NAMPT) Inhibitors in Ewing Sarcoma. Clin Cancer Res. 2017 Dec 1;23(23):7301-7311. doi: 10.1158/1078-0432.CCR-17-1121. Epub 2017 Sep 12. PMID: 28899971; PMCID: PMC6636827."}
{"compound": "O=C(O)c1cn(-c2ccc(F)cc2)c2cc(N3CCNCC3)c(F)cc2c1=O", "viability (% of control)": "inactive: 116%"}
{"compound": "COc1c(O)cc2c(c1O)[C@@H]1O[C@H](CO)[C@@H](O)[C@H](O)[C@H]1OC2=O", "viability (% of control)": "inactive: 114%"}
{"compound": "O=C(Nc1ccccc1Br)N[C@@H]1CCN(c2ccc(C(F)(F)F)cn2)C1", "Potency": "inconclusive: 23.5 µM [cytotoxic, single point]"}
{"compound": "Nc1ncnc2c1ncn2[C@@H]1O[C@H](CO)C[C@@H]1O", "Potency": "inconclusive: 33.2 µM [cytotoxic, partial curve, poor fit]"}
{"compound": "Cc1c(O)cccc1C(=O)N[C@@H](CSc1ccccc1)[C@H](O)CN1C[C@H]2CCCC[C@@H]2C[C@@H]1C(=O)NC(C)(C)C", "Potency": "active: 18.7 µM"}
{"compound": "CCC(=O)N[C@H]1CC[C@H](C(=O)N(C)c2ccc(-c3nc4ccccc4o3)cc2)C1", "Potency": "inconclusive: 18.7 µM [cytotoxic, partial curve, poor fit]"}
{"compound": "CN(C)C(=N)N=C(N)N", "viability (% of control)": "inactive: 111%"}
{"compound": "CC(=O)O[C@]1(C(C)=O)CC[C@@H]2[C@@H]3C[C@H](C)C4=CC(=O)CC[C@]4(C)[C@H]3CC[C@@]21C", "Potency": "inconclusive: 18.7 µM [cytotoxic, partial curve]"}
{"compound": "COc1ccc(-c2c(-c3ccc(O)cc3O)n[nH]c2C)cc1", "viability (% of control)": "inactive: 84.9% [at 92.2 µM]"}
{"compound": "COc1cc(C(C)=O)ccc1OCCCN1CCC(c2noc3cc(F)ccc23)CC1", "Potency": "active: 13.2 µM"}
{"compound": "O=C(O)c1c(Cl)c(Cl)c(Cl)c(Cl)c1-c1c2cc(I)c(=O)c(I)c-2oc2c(I)c(O)c(I)cc12", "Potency": "active: 9.35 µM"}
{"compound": "Cc1cc(=O)oc2cc(O)ccc12", "viability (% of control)": "inactive: 103%"}
{"compound": "CC(C)n1nc(-c2ccc3oc(N)nc3c2)c2c(N)ncnc21", "Potency": "inconclusive: 0.0053 µM [cytotoxic, full curve]"}
{"compound": "CCOC(=O)O[C@]1(C(=O)OCCl)CC[C@@H]2[C@H]3CCC4=CC(=O)C=C[C@]4(C)[C@@H]3[C@@H](O)C[C@@]21C", "Potency": "active: 0.118 µM"}
{"compound": "C=CC[N+]1([C@H]2C[C@H]3[C@@H]4CC[C@H]5C[C@H](O)[C@@H](N6CCOCC6)C[C@]5(C)[C@@H]4CC[C@]3(C)[C@H]2OC(C)=O)CCCC1", "Potency": "inconclusive: 6.62 µM [cytotoxic, partial curve, poor fit]"}
{"compound": "C=C1C(=O)OC(CCCCCCCC)C1C(=O)O", "note": "(stereo not given)", "Potency": "inconclusive: 0.0021 µM [rising, full curve, poor fit]"}
{"compound": "CCOC(=O)C(C)(C)Oc1ccc(Cl)cc1", "viability (% of control)": "inactive: 115%"}
{"compound": "COc1ccc2cc(-c3nc(-c4ccc(S(C)=O)cc4)[nH]c3-c3ccncc3)ccc2c1", "note": "(stereo not given)", "Potency": "inconclusive: 23.5 µM [cytotoxic, single point]"}
{"compound": "COc1nc(-c2ccc3c(c2)OCO3)n(-c2ccc(NC(=O)CSc3ccccc3)cc2)n1", "Potency": "inconclusive: 1.05 µM [cytotoxic, full curve, poor fit]"}
{"compound": "CC(=O)SCC(Cc1ccccc1)C(=O)NCC(=O)OCc1ccccc1", "note": "(stereo not given)", "Potency": "inconclusive: 7.43 µM [cytotoxic, partial curve]"}
{"compound": "CN(C)C(=O)[C@H](O)[C@H](Cc1ccccc1)NC(=O)c1cc2cc(Cl)ccc2[nH]1", "Potency": "inconclusive: 0.118 µM [rising, full curve, poor fit]"}
{"compound": "c1cnc2cc3c(cc2n1)C1CNCC3C1", "Potency": "inconclusive: 0.001 µM"}
{"compound": "COc1ccc(C(=O)CC(=O)c2ccc(C(C)(C)C)cc2)cc1", "Potency": "inconclusive: 11.8 µM [cytotoxic, full curve, poor fit]"}
{"compound": "CC[C@@]1(O)C(=O)OCc2c1cc1n(c2=O)Cc2cc3cc(O)ccc3nc2-1", "Potency": "active: 8.33 µM"}
{"compound": "COc1cc(N2CCC(N3CCN(C)CC3)CC2)ccc1Nc1ncc(Cl)c(Nc2ccccc2S(=O)(=O)C(C)C)n1", "Potency": "inconclusive: 16.6 µM [cytotoxic, partial curve, poor fit]"}
{"compound": "CN1CCN(Cc2ccc(NC(=O)Nc3ccc(Oc4cc(NC(=O)C5CC5)ncn4)cc3)cc2C(F)(F)F)CC1", "Potency": "active: 0.418 µM"}
{"compound": "Cc1nc2n(c(=O)c1CCN1CCC(c3noc4cc(F)ccc34)CC1)CCCC2", "viability (% of control)": "inactive: 113%"}
{"compound": "CN(C)c1ccc(C2Nc3ccc4ccccc4c3C3=C2C(=O)CC(C)(C)C3)cc1Br", "note": "(stereo not given)", "Potency": "inconclusive: 16.6 µM [cytotoxic, partial curve]"}
{"compound": "NCCc1cnc[nH]1", "Potency": "inconclusive: 5.9 µM [cytotoxic, partial curve, poor fit]"}
{"compound": "Cc1nnc(C(C)C)n1C1C[C@H]2CC[C@@H](C1)N2CC[C@H](NC(=O)C1CCC(F)(F)CC1)c1ccccc1", "note": "(stereo not given in full)", "viability (% of control)": "inactive: 139%"}
{"compound": "CC[C@H]1OC(=O)[C@H](C)[C@@H](O[C@H]2C[C@@](C)(OC)[C@@H](O)[C@H](C)O2)[C@H](C)[C@@H](O[C@@H]2O[C@H](C)C[C@H](N(C)C)[C@@H]2O)[C@](C)(OC)C[C@@H](C)C(=O)[C@H](C)[C@@H](O)[C@]1(C)O", "viability (% of control)": "inactive: 84.4%"}
{"compound": "COc1nccc(-c2c(-c3ccc(F)cc3)ncn2C2CCNCC2)n1", "Potency": "inconclusive: 6.62 µM [cytotoxic, partial curve, poor fit]"}
{"compound": "COc1ccc2cccc(CCNC(C)=O)c2c1", "viability (% of control)": "inactive: 102%"}
{"compound": "O=c1oc2c(O)c(O)cc3c(=O)oc4c(O)c(O)cc1c4c23", "Potency": "inconclusive: 0.001 µM [cytotoxic]"}
{"compound": "C=CCc1ccc(O)c(-c2ccc(O)c(CC=C)c2)c1", "Potency": "inconclusive: 20.9 µM [cytotoxic, partial curve]"}
{"compound": "Cc1cccc(-c2[nH]c(C(C)(C)C)nc2-c2ccc3nccnc3c2)n1", "Potency": "inconclusive: 18.7 µM [cytotoxic, partial curve, poor fit]"}
{"compound": "Nc1ncnc2nc(-c3ccc(N4CCOCC4)nc3)cc(-c3cccc(Br)c3)c12", "Potency": "inconclusive: 3.72 µM [cytotoxic, partial curve, poor fit]"}
{"compound": "CCOC(=O)C=C[C@H](C[C@@H]1CCNC1=O)NC(=O)[C@@H](CC(=O)[C@@H](NC(=O)c1cc(C)on1)C(C)C)Cc1ccc(F)cc1", "viability (% of control)": "inactive: 133%"}
{"compound": "CC=C(C)C(=O)O[C@H]1C(C)=C[C@]23C(=O)[C@@H](C=C(CO)[C@@H](O)[C@]12O)[C@H]1[C@@H](C[C@H]3C)C1(C)C", "Potency": "inconclusive: 14.8 µM [cytotoxic, partial curve, poor fit]"}
{"compound": "O=C(NC(Cc1cc(=O)[nH]c2ccccc12)C(=O)O)c1ccc(Cl)cc1", "note": "(stereo not given)", "Potency": "inconclusive: 0.0013 µM [rising, full curve, poor fit]"}
